Results from doi:10.1101/2021.03.26.437179 (bioRxiv, 2021).

Biological target: VDAL-MYC (Verticillium dahliae)
Assay: affinity purification with mass spectrometry

binding: binds
B1: PUB26 (endogenous) (enzyme, UniProt Q9FXA4 1-421)
chain: MPGNLEPLDLGIQIPYHFRCPISLDLMSDPVTISTGQTYDRTSIDSWIAMGNTTCPVTRVALSDFTLIPNHTLRRLIQEWCVANRSNGVERIPTPKQPADPISVRSLLSQASAITGTHVSVRSRAAAIRRLRGLARDSEKNRVLIAGHNAREILVRILFADIETTSLSSELVSESLALLVLLHMTETECEAVASDPSRVGFMTRLLFDSSIEIRVNAAALIEMVLTGAKSMDLKLIISGSDSIFEGVLDLLKNPISSRRALKIGIKAIFALCLVKQTRHLAISAGAPGILIDRLAADFDRCDTERGLATVELLCRLPEGCAAFGEHALTVPLMVKTILRVSDRATEYAAGALLALCTAEERCRDEAAAAGLVTQLLLLVQSDCTERAKRKAQMLLKLLRDSWPDDSTVHSDDFNRSEVAPF

These are yes or no findings as the source states them, for the method shown. Binding seen in cells or lysates may run through a third protein. A yes stands for co-enrichment or nearness to the bait. Other partners may have been found.
